Data taken from publication PMC6406679.
No constants are given. Whether binding was seen depends on the method and setting. In cells and extracts the contact can be indirect. Some results given as binding are weak or reduced against the parent protein; the word gives no strength.

Amino acid sequences for entries named in this document (tags omitted).
UniProt Q96RU7: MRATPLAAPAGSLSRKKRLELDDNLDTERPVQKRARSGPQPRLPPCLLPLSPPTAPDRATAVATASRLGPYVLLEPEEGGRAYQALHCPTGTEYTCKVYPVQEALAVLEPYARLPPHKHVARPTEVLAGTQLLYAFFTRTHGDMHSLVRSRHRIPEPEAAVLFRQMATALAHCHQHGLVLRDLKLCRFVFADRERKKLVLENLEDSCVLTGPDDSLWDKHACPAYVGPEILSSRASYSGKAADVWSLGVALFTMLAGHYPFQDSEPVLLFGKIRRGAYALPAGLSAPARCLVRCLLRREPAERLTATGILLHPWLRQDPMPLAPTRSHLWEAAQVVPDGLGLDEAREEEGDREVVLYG
UniProt Q9NYF8: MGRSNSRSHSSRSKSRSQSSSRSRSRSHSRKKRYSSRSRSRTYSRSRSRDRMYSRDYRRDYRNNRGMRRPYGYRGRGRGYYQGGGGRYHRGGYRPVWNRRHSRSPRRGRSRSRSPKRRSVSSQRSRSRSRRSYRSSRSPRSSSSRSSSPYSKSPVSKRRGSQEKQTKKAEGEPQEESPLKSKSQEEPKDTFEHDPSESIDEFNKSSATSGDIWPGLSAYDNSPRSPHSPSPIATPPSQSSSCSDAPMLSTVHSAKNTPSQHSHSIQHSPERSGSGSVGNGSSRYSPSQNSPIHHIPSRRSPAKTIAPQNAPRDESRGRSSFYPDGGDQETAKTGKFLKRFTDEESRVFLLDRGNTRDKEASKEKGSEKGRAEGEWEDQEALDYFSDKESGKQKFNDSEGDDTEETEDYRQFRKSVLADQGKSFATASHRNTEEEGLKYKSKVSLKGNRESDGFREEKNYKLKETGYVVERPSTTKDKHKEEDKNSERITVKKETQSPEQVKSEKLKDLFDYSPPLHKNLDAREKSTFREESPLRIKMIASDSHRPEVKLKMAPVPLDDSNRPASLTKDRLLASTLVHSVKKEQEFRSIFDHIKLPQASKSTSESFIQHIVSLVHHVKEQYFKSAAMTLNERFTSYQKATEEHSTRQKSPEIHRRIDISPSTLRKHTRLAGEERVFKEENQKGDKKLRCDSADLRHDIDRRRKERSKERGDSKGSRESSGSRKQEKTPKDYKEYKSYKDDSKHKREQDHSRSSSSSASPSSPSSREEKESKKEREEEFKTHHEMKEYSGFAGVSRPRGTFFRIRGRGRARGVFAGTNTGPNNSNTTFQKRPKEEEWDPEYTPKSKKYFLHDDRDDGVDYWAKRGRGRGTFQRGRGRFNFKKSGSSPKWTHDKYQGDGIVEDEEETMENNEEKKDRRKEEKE

B1: BCL2 interacting protein 1 (BNIP1) (protein, UniProt Q12981 1-228)
chain: MAAPQDVHVRICNQEIVKFDLEVKALIQDIRDCSGPLSALTELNTKVKEKFQQLRHRIQDLEQLAKEQDKESEKQLLLQEVENHKKQMLSNQASWRKANLTCKIAIDNLEKAELLQGGDLLRQRKTTKESLAQTSSTITESLMGISRMMAQQVQQSEEAMQSLVTSSRTILDANEEFKSMSGTIQLGRKLITKYNRRELTDKLLIFLALALFLATVLYIVKKRLFPFL

Molecular target: Tribbles homolog 3 (TRIB3) (human (endogenous in MDA-MB-231)) (UniProt Q96RU7)
Assay: co-IP; immunoprecipitation with anti-TRIB3 antibody from 231-RR cells, immunoblotting with antibodies of DDX5, BCLAF1 or BNIP1

Row | Molecule | binding
1 | BCL2-associated transcription factor 1 (BCLAF1) (from UniProt Q9NYF8 1-920) | binds
2 | B1 | binds
